This passage reports log2 fold change results from the supplement of paper PMC12819154, “High-throughput peptide-centric local stability assay extends protein–ligand identification to membrane proteins, tissues and bacteria” (Nature Structural & Molecular Biology, 2025).

Sequences of proteins named here, by UniProt entry; tags and fusion partners are left off. A change or cut given only in a name is not applied to a line headed by its entry.
UniProt O60671: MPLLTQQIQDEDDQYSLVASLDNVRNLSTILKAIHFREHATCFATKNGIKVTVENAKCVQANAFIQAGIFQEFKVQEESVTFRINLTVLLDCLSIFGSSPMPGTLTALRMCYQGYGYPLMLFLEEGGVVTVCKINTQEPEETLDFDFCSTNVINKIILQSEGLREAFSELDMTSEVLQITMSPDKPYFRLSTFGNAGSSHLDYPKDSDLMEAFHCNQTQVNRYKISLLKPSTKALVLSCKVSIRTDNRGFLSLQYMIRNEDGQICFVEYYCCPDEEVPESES
UniProt O43324: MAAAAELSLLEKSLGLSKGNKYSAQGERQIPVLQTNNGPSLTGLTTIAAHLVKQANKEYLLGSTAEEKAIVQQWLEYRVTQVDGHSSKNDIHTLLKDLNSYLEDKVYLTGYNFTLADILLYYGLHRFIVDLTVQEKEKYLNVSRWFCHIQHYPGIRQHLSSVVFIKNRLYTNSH
UniProt O60888: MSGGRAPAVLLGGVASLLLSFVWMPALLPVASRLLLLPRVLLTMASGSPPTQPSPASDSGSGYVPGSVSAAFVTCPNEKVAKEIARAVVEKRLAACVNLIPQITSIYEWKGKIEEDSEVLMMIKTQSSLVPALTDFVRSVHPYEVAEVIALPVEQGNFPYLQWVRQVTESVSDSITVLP
UniProt O75380, whole entry: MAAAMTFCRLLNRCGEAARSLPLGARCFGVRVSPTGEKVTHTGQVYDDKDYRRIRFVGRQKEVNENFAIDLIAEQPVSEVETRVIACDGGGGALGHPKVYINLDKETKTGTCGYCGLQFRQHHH
UniProt O43164: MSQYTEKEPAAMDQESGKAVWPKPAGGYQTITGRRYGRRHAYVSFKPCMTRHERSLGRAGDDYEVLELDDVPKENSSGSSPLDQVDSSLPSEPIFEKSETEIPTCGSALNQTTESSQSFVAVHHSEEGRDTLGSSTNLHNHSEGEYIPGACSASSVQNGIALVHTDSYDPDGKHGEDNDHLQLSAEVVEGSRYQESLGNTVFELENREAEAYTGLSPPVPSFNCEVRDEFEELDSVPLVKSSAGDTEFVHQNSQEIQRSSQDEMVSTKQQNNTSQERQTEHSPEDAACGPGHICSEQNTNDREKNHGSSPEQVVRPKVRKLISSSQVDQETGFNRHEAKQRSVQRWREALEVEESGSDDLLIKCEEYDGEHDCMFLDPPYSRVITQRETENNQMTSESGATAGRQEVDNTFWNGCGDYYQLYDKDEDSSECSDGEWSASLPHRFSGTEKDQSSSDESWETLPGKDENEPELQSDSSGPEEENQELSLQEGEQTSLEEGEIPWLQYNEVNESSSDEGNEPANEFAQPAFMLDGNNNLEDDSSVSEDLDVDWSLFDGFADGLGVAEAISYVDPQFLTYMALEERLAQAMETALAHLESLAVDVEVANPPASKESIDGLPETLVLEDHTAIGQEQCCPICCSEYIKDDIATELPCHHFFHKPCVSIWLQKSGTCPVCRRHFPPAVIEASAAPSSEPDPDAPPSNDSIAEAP
UniProt O75251, whole entry: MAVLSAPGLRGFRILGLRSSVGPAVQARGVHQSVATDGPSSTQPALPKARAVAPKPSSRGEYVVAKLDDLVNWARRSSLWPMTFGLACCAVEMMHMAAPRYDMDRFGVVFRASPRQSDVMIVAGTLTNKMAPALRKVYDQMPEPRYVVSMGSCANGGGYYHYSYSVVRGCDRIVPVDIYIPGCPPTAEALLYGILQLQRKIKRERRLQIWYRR
UniProt O75140: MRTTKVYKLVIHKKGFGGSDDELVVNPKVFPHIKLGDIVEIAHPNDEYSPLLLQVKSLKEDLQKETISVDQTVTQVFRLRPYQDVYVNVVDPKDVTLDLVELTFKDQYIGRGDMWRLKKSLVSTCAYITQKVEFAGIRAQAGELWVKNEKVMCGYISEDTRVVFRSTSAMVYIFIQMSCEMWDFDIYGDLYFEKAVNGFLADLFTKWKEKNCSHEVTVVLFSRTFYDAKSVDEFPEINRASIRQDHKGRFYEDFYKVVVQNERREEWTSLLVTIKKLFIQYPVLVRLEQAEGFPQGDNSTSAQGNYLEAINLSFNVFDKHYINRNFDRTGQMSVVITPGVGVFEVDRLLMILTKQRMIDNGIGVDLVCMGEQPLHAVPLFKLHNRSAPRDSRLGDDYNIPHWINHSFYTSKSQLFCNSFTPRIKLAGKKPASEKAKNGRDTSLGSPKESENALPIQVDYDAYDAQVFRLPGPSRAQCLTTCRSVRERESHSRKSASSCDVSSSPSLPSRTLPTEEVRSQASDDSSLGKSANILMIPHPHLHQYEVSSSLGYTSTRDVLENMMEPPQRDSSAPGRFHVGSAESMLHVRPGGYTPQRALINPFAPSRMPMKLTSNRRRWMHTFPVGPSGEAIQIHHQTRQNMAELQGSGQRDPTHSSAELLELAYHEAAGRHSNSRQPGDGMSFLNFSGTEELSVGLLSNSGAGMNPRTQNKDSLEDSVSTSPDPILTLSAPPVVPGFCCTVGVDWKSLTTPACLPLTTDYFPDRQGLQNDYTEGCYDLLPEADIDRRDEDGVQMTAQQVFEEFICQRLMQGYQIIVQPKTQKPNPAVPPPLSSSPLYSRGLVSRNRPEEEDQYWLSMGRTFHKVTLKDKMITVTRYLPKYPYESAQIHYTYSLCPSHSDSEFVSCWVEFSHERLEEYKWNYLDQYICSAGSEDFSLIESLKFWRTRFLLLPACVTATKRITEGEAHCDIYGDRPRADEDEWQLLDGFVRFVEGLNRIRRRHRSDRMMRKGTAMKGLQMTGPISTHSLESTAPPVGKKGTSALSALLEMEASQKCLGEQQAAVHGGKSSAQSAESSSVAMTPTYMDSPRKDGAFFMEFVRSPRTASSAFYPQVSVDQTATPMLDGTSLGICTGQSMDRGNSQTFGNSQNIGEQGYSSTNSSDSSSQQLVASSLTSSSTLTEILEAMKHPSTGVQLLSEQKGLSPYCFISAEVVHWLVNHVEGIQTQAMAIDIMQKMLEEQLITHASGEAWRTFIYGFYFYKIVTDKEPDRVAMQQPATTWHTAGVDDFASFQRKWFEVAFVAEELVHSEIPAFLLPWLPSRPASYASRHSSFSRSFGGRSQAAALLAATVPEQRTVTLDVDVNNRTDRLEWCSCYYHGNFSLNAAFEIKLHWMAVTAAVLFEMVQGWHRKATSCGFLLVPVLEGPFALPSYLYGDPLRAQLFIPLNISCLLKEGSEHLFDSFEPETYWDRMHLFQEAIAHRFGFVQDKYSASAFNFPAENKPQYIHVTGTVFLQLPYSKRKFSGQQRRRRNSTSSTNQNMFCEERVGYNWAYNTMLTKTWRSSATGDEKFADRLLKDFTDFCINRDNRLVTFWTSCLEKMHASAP
UniProt O75182: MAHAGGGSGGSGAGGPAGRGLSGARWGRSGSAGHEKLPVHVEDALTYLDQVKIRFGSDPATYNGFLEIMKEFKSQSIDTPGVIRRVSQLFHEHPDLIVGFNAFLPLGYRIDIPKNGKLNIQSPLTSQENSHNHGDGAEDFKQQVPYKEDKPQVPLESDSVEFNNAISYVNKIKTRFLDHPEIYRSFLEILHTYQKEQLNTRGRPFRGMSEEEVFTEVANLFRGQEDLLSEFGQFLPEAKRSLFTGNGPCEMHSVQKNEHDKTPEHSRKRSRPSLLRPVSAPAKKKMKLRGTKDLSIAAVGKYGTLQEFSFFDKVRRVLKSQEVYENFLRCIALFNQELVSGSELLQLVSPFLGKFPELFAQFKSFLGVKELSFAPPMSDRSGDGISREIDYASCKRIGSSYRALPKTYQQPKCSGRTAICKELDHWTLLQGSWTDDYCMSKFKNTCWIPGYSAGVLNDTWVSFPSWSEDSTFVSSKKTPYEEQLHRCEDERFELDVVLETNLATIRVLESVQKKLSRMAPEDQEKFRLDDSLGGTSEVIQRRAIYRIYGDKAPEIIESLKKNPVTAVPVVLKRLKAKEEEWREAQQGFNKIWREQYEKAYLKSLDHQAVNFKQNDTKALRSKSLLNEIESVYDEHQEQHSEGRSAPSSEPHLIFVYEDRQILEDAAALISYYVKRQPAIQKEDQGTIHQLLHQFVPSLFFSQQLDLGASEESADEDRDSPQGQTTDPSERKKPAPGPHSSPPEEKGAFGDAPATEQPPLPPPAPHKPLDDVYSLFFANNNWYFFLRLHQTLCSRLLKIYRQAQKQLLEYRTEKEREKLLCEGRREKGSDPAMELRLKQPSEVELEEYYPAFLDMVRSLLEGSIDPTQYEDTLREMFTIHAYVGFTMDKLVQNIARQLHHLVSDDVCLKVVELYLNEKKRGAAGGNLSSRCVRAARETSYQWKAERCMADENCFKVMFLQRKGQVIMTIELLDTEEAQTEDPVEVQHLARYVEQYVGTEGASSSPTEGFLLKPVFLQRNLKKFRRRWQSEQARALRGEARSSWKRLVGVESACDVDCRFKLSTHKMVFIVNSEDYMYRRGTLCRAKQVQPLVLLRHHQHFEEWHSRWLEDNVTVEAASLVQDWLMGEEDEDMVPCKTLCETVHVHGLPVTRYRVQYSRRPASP
UniProt O43617, whole entry: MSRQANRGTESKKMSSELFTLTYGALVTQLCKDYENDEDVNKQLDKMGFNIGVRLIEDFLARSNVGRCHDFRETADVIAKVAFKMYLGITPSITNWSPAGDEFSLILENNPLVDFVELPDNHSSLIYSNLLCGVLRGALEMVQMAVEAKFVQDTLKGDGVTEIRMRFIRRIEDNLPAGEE
UniProt O75351, whole entry: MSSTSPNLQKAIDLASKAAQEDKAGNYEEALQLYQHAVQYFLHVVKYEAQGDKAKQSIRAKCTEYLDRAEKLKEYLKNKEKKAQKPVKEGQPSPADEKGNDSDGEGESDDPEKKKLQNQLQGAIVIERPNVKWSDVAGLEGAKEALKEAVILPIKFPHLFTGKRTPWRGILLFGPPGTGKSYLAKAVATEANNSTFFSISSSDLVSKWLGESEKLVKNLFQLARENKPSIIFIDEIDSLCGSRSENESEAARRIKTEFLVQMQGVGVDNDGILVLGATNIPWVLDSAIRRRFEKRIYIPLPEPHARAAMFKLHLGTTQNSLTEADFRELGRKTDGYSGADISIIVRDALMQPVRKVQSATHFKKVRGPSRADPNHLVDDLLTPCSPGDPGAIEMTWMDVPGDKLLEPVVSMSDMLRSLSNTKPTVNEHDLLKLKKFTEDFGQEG
UniProt O43598: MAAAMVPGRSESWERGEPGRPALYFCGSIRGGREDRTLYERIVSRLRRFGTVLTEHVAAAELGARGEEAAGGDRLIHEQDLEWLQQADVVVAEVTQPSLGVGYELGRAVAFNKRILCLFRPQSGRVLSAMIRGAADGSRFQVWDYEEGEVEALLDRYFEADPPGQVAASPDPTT
UniProt O43933: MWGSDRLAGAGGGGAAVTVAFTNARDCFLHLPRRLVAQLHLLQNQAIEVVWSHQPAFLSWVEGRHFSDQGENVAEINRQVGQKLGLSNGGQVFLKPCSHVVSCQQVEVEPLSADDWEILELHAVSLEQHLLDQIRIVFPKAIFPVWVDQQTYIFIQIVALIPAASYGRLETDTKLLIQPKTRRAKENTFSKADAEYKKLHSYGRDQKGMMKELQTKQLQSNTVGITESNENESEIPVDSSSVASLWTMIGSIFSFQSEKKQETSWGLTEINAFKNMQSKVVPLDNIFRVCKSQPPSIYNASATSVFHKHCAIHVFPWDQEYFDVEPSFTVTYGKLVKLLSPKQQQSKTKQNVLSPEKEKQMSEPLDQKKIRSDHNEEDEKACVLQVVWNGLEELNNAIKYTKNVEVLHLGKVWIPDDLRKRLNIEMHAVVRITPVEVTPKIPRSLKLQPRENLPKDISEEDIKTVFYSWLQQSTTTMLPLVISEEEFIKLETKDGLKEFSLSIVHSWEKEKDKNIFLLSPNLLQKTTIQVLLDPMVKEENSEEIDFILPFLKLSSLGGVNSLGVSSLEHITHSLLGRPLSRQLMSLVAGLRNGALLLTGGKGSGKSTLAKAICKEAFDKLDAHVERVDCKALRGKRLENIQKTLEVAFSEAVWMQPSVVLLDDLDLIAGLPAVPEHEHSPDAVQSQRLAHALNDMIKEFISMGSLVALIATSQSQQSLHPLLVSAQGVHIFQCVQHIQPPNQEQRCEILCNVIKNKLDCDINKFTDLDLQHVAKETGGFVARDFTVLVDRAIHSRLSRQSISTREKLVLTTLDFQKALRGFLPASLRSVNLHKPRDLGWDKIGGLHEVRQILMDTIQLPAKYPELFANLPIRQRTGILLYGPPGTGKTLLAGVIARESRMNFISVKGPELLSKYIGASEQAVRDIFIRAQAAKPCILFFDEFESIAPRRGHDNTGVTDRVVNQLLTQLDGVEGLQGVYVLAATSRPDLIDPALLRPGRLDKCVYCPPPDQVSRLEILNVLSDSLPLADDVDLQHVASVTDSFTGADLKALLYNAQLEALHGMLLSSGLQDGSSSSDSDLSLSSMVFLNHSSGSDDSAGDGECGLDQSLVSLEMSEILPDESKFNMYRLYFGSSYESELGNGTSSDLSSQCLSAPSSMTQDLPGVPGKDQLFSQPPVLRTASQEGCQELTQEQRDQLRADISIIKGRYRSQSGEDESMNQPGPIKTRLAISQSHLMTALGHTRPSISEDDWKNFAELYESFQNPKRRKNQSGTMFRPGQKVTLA

The list shows a part of the results. Most entries show no effect beyond the scatter of the controls.

Compound in the experiment: Cc1nc(Nc2ncc(C(=O)Nc3c(C)cccc3Cl)s2)cc(N2CCN(CCO)CC2)n1 [dasatinib]
The experiment in a line: log2 fold change of tryptic peptide abundance, ligand vs vehicle (limited proteolysis) (log2 ratio); higher = more trypsin-susceptible (destabilized). To be noted: ligand concentration: 5 uM; sample: K562 cleared lysate.
“TRIAP1 (peptide sequence: EYDQCFNR, peptide start residue: 14) (UniProt O43715)”: the log2 fold change is 0.246.

Consider “KALRN (peptide sequence: LPQASPRPYSSVPAGSEKPPK, peptide start residue: 2258) (UniProt O60229)”, for which the log2 fold change came out at 0.125.

For “UniProt O43345 (peptide sequence: LNQSLTTTQSK, peptide start residue: 133)”, the log2 fold change was 0.0636.

For “RAD1 (peptide sequence: IILQSEGLR, peptide start residue: 156) (UniProt O60671)”, the log2 fold change is 0.0876.

With “EEF1E1 (peptide sequence: QHLSSVVFIK, peptide start residue: 157) (UniProt O43324)”, the log2 fold change is 0.0761.

Consider “CUTA (peptide sequence: GKIEEDSEVLMMIK, peptide start residue: 111) (UniProt O60888)”, for which the log2 fold change came out at 0.313.

For the target “NDUFS6 (peptide sequence: VTHTGQVYDDKDYR, peptide start residue: 39) (UniProt O75380)”, the log2 fold change was determined as 0.125.

With “BCAS1 (peptide sequence: VPGDSQQEAK, peptide start residue: 207) (UniProt O75363)”, the log2 fold change was -0.595.

Consider “TACC1 (peptide sequence: IHAEEKLDK, peptide start residue: 735) (UniProt O75410)”, for which the log2 fold change is -0.643.

For “PJA2 (peptide sequence: SSQDEMVSTK, peptide start residue: 259) (UniProt O43164)”, the log2 fold change is -0.252.

Regarding “NDUFS7 (peptide sequence: KVYDQMPEPR, peptide start residue: 136) (UniProt O75251)”, the log2 fold change came to 0.077.

For “DYNC1LI2 (peptide sequence: KLVHDKELAAEDEQVFLMK, peptide start residue: 347) (UniProt O43237)”, the log2 fold change is 0.519.

Consider “ZW10 (peptide sequence: VEEIKGEVCNMISK, peptide start residue: 31) (UniProt O43264)”, for which the log2 fold change is 0.416.

Turning to “DEPDC5 (peptide sequence: TFYDAKSVDEFPEINR, peptide start residue: 224) (UniProt O75140)”, the log2 fold change is -0.247.

“CS (peptide sequence: GFSIPECQK, peptide start residue: 95) (UniProt O75390)”: the log2 fold change was 0.468.

Turning to “MGRN1 (peptide sequence: AASIENVLQDSSPEHCGR, peptide start residue: 513) (UniProt O60291)”, the log2 fold change is -0.0796.

Regarding “SIN3B (peptide sequence: EKGSDPAMELR, peptide start residue: 825) (UniProt O75182)”, the log2 fold change stood at 0.593.

Consider “KIN (peptide sequence: FIEEQVRR, peptide start residue: 172) (UniProt O60870)”, for which the log2 fold change was -0.863.

On to “CEP104 (peptide sequence: TIFEGFAK, peptide start residue: 663) (UniProt O60308)”, for which the log2 fold change was -0.181.

Consider “TRAPPC3 (peptide sequence: MGFNIGVR, peptide start residue: 47) (UniProt O43617)”, for which the log2 fold change was -0.0716.

As for “LYRM1 (peptide sequence: KWQATSGQMEDTIKEK, peptide start residue: 22) (UniProt O43325)”, the log2 fold change stood at 0.392.

For the target “VPS4B (peptide sequence: KFTEDFGQEG, peptide start residue: 435) (UniProt O75351)”, the log2 fold change was 0.122.

For the target “ZEB2 (peptide sequence: KVYQYSNSR, peptide start residue: 696) (UniProt O60315)”, the log2 fold change came out at 0.607.

“BRD4 (peptide sequence: AQAEHAEKEKER, peptide start residue: 1243) (UniProt O60885)”: the log2 fold change is -0.177.

Turning to “CBFA2T3 (peptide sequence: RYSDAEDTKK, peptide start residue: 437) (UniProt O75081)”, the log2 fold change was -1.27.

Take “UniProt O43598 (peptide sequence: FGTVLTEHVAAAELGAR, peptide start residue: 49)”: the log2 fold change was 0.0906.

“PEX1 (peptide sequence: KLHSYGR, peptide start residue: 198) (UniProt O43933)”: the log2 fold change was determined as 0.546.

As for “PDE8A (peptide sequence: HYVSIIR, peptide start residue: 318) (UniProt O60658)”, the log2 fold change came to 0.355.
